Measured values reported in US20220213209A1.
These are yes or no findings as the source states them, for the method shown. A result given as binding can be weak or reduced; the word gives no strength.

Target: macaca Cynomolgus GITR (Macaca cynomolgus)
Experiment: BLI OctetRed 96

B1: BCD166-01-014 (antibody, human IgG1, lambda, V domains shown)
VH: QVQLVQSGGGLVQPGGSLRLSCAASGFTFSYYWMYWVRQAPGKGLEWVSAISWNGGRTYYAESMKGRFTISRDNAQNTLYLQMNSLKSEDTAVYYCAKNRYYSDPNYGMNLWGKGTTVTVSS
VL: QSALTQPASVSGSPGQSITISCTGTSTDIGTYKYISWYQQHPGKAPKLIIYGVSHRPSGVSDRFSGSKSDNTASLTISGLQAEDEADYYCSSYTSSGTVVFGGGTKVTVLG
Question: B1 was tested. Which binding did it give?
Answer: binds
